Measured values: the supplement of paper PMC5770031
This is one part of the list. This data set is noisy: repeats of one test often differ as much as different tests do.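 ATM8/balancer (normal ATM) heterozygous flies were crossed on treated food; parents laid eggs 5–6 days, offspring developed ~12 days, so parents and larvae ingested compound. Readout: fraction of emerged adults homozygous for ATM8 versus 2% DMSO controls. Compounds were neutral at 10–20% homozygotes, harmful below 10%, helpful above 20%.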 Numbered stars: 1 amine (or outer) side, 2 acyl side, 3 side chain; on linkers, the order of the positions; unused ones are H or OH. Square brackets hold non-standard residues; d marks the D form. Peptide text beside a SMILES is read from it. * marks the point of attachment. ξ: configuration not given here. X3 = O=C([C@H](N[*:1])C1CCC(O)CC1)[*:2]; X5 = O=C(C(N[*:1])C1CCC(O)C(Cl)C1)[*:2]; X4 = O=C(C(N[*:1])C1CCC(O)CC1)[*:2]; aThr = C[C@H](O)[C@H](N)C(=O)O; dOrn = NCCC[C@@H](N)C(=O)O; X2 = CCC/C=C\C=C/C(=O)*; ξN = NC(=O)CC(N)C(=O)O

Tested on: Drosophila melanogaster ATM8 (temperature-sensitive ATM allele)
Test: fraction of eclosed F1 progeny that are homozygous ATM8 (rescue of developmental lethality); higher = more rescue of ATM8 developmental lethality; extreme values may be limits of the assay
Conditions: compound concentration applied to food 0.2 mM; 21 °C

| Structure (SMILES) | fraction of eclosed F1 progeny that are homozygous ATM8 |
| --- | --- |
| Cn1c(=O)c2nc(C3CCCC3)[nH]c2n(C)c1=O | 0.136 |
| C=C1c2c(Cl)ccc(O)c2C(=O)C2=C(O)[C@]3(O)C(=O)C(C(N)=O)=C(O)[C@@H](N(C)C)[C@@H]3[C@@H](O)[C@H]12.O=C(O)c1cc(S(=O)(=O)O)ccc1O | 0.133 |
| CC(C)(C)NCC(O)COc1cccc2c1CCC(=O)N2 (stereo not drawn) | 0.0263 |
| O=C(O)c1cc(/N=N/c2ccc(O)c(C(=O)O)c2)ccc1O | 0.08 |
| O=C1C=C(O)C(=O)c2ccccc21 | 0.087 |
| COc1ccc2c(c1OC)C(=O)O[C@@H]2[C@H]1c2c(cc3c(c2OC)OCO3)CCN1C | 0.179 |
| CC(=O)NCCCS(=O)(=O)O | 0.263 |
| CCOC(=O)O[C@]1(C(=O)COC(=O)CC)CC[C@H]2[C@@H]3CCC4=CC(=O)C=C[C@]4(C)[C@H]3[C@@H](O)C[C@@]21C | 0.0303 |
| Cn1c(=O)[nH]c(=O)c2[nH]cnc21 | 0.143 |
| COc1ccc(-c2cc(=O)c3c(O)c(OC)c(O[C@@H]4O[C@H](CO[C@@H]5O[C@@H](C)[C@H](O)[C@@H](O)[C@H]5O)[C@@H](O)[C@H](O)[C@H]4O)cc3o2)cc1 | 0.163 |
| CC(=O)OCC1=C(C(=O)O)N2C(=O)[C@@H](NC(=O)CCCC(N)C(=O)O)C2SC1 (stereo partly drawn) | 0.0851 |
| O=C(C1CCCCC1)N1CC(=O)N2CCc3ccccc3C2C1 (stereo not drawn) | 0.143 |
| O=C(O)[C@@H](O)[C@H](O)[C@H](O)[C@@H](O)C(=O)O | 0.0274 |
| OC[C@H]1O[C@H](O[C@]2(CCl)O[C@H](CCl)[C@@H](O)[C@@H]2O)[C@H](O)[C@@H](O)[C@H]1Cl | 0.0833 |
| CC1(C)C=Cc2c(c3c(c4c(=O)c(-c5ccc(O)c(O)c5)coc24)OC(C)(C)CC3)O1 | 0.108 |
| COc1ccc2c(c1)c(CC(=O)O)c(C)n2C(=O)c1ccc(Cl)cc1 | 0.156 |
| Nc1nc2ccc(OC(F)(F)F)cc2s1 | 0 |
| CC[C@H]1C(=O)OC[C@@H]1Cc1cncn1C | 0.155 |
| Oc1noc2c1CCNC2 | 0.194 |
| CCOC(=O)COc1ccc2c(=O)cc(-c3ccccc3)oc2c1 | 0.233 |

| Structure (SMILES) | fraction of eclosed F1 progeny that are homozygous ATM8 |
| --- | --- |
| COc1c(CC(=O)c2cc3c(cc2O)OC(C)(C)C(O)C3)ccc2c1C=CC(C)(C)O2 (stereo not drawn) | 0.129 |
| O=C1/C(=C/c2cccs2)CCC/C1=C\c1cccs1 | 0.12 |
| C#CCCCCCCCCCCCC(O)CC(O)COC(C)=O.C=CCCCCCCCCCCCC(O)CC(O)COC(C)=O (stereo not drawn) | 0.182 |
| C[C@H]1c2cccc(O)c2C(=O)C2=C(O)[C@]3(O)C(=O)C(C(N)=O)=C(O)[C@@H](N(C)C)[C@@H]3[C@@H](O)[C@@H]21 | 0 |
| COc1cc([C@@H]2c3cc4c(cc3[C@H](O)[C@H]3COC(=O)[C@@H]23)OCO4)cc(OC)c1OC | 0.167 |
| CCCC(C)C1(CC)C(=O)NC(=S)NC1=O (stereo not drawn) | 0.215 |
| C=CC(C1=CC(=O)C(OC)=CC1=O)c1ccccc1 (stereo not drawn) | 0.341 |
| Clc1ccc(C(Cn2ccnc2)OCc2ccsc2Cl)c(Cl)c1 (stereo not drawn) | 0.0333 |
| C[C@](N)(Cc1ccc(O)c(O)c1)C(=O)O | 0.224 |
| COc1cc(C(=O)NCc2ccc(OCCN(C)C)cc2)cc(OC)c1OC | 0.027 |
| O=C(O)C1CC([C@@H]2CCCCN2)CN2CCCCC12 (stereo partly drawn) | 0.2 |
| C[C@@H]1CC[C@H]2[C@](C)(CO)[C@@H](O)CC[C@]2(C)[C@@]12CC[C@@](CO)(CCO)O2 | 0.125 |
| O=c1cc(CO)occ1O | 0.178 |
| CN1CC(=O)N2[C@H](c3ccc4c(c3)OCO4)c3[nH]c4ccccc4c3C[C@@H]2C1=O | 0 |
| C1CCC(C(CC2CCCCN2)C2CCCCC2)CC1 (stereo not drawn) | 0.0256 |
| CC(C)c1c(O)c(-c2cc3c(c(C(C)C)c2O)CCC2C(C)(C)CCC[C@]32C)cc2c1CCC1C(C)(C)CCC[C@]21C (stereo partly drawn) | 0.176 |
| CCC/C=C\C=C/C(=O)N[C@@H](CC(N)=O)C(=O)NC(CC(N)=O)C(=O)N[C@@H](C(=O)N[C@H](CCCN)C(=O)N[C@@H](C(=O)N[C@@H](C(=O)N[C@@H](C(=O)N[C@H](C(=O)N[C@@H](Cc1ccccc1)C(=O)N[C@H](CCCN)C(=O)NC(C(=O)N[C@H](C(=O)NC(C(=O)NCC(=O)N[C@@H](CC(C)C)C(=O)N[C@H](C)C(=O)NC(C(=O)O)C1CCC(O)C(Cl)C1)C1CCC(O)CC1)[C@H](C)O)C1CCC(O)CC1)[C@H](C)O)C1CCC(O)CC1)C1CCC(O)CC1)[C@H](C)O)C1CCC(O)CC1 (stereo partly drawn) [RAMOPLANIN [A2 shown; 2mM]] (X2-N[ξN][X3][dOrn][dT][X3][X3][aThr]F[dOrn][X4][aThr][X4]GL[dA][X5]-OH) | 0.0571 |
| CCc1nc(N)nc(N)c1-c1ccc(Cl)cc1 | 0.2 |
| CC(=O)[C@@]1(O)CC[C@H]2[C@@H]3C[C@H](C)C4=CC(=O)C=C[C@]4(C)[C@@]3(F)[C@@H](O)C[C@@]21C | 0 |
| O=C(O)c1cn(C2CC2)c2cc(N3CCNCC3)c(F)cc2c1=O | 0.1 |

Structural class, the compounds so far with an NH in an aromatic ring.

| Structure (SMILES) | fraction of eclosed F1 progeny that are homozygous ATM8 |
| --- | --- |
| Cn1c(=O)c2nc(C3CCCC3)[nH]c2n(C)c1=O | 0.136 |
| Cn1c(=O)[nH]c(=O)c2[nH]cnc21 | 0.143 |
| CN1CC(=O)N2[C@H](c3ccc4c(c3)OCO4)c3[nH]c4ccccc4c3C[C@@H]2C1=O | 0 |

Further structures:

| Structure (SMILES) | fraction of eclosed F1 progeny that are homozygous ATM8 |
| --- | --- |
| O=C1C=C2C=C[C@@H]3C[C@@]2(O1)[C@H]1CCCCN31 | 0.2 |
| CCOc1nc2cccc(C(=O)OCc3oc(=O)oc3C)c2n1Cc1ccc(-c2ccccc2-c2noc(=O)[nH]2)cc1 | 0.364 |
| C#CCN[C@@H]1CCc2ccccc21 | 0.111 |
| Cn1c(=O)[nH]c2ncn(C)c2c1=O | 0.275 |
| COc1ccc2c(c1)OCC(Cc1ccc(OC)c(O)c1)C2=O (stereo not drawn) | 0.175 |
| COc1cc(O)cc(O)c1C(=O)c1ccccc1 | 0.0976 |
| CN1CCC[C@@H]1Cc1c[nH]c2ccc(CCS(=O)(=O)c3ccccc3)cc12 | 0.329 |
| CC(C)[N+](C)(CCOC(=O)C1c2ccccc2Oc2ccccc21)C(C)C | 0.184 |
| CN(C)CCC=C1c2ccccc2COc2ccccc21 | 0.0667 |
| Nc1ccccc1S(N)(=O)=O | 0.0926 |
| O=Cc1ccccc1O[C@@H]1O[C@H](CO)[C@@H](O)[C@H](O)[C@H]1O | 0.0455 |
| OCc1cccnc1 | 0.128 |
| NNCc1ccccc1 | 0.0385 |
| CC(C)=CC1C(C(=O)OCc2cccc(Oc3ccccc3)c2)C1(C)C (stereo not drawn) | 0.278 |
| CC1=CC(=O)C(C(C)C)=CC1=O | 0.257 |
| CCOc1ccc2ccccc2c1C(=O)N[C@@H]1C(=O)N2[C@@H]1SC(C)(C)[C@@H]2C(=O)O | 0.143 |
| NC(=O)C[S@@+]([O-])C(c1ccccc1)c1ccccc1 | 0.214 |
| COc1ccc(-c2oc3cc(OC)c(OC)c(OC)c3c(=O)c2OC)cc1 | 0.156 |

Three structures already listed, arranged by SMILES length, rising.

| Structure (SMILES) | fraction of eclosed F1 progeny that are homozygous ATM8 |
| --- | --- |
| COc1cc(O)cc(O)c1C(=O)c1ccccc1 | 0.0976 |
| COc1ccc2c(c1)OCC(Cc1ccc(OC)c(O)c1)C2=O (stereo not drawn) | 0.175 |
| CN1CCC[C@@H]1Cc1c[nH]c2ccc(CCS(=O)(=O)c3ccccc3)cc12 | 0.329 |
